{"source": "PubChem BioAssay AID493246 (Drosophila RNAi Screening Center, 2011)", "aim": "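Genes fly cells need to grow and stay alive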 (primary screen)", "cell system": "Drosophila Kc and S2R+ cells", "knock-down reagent": "long dsRNA against Drosophila genes", "detection": "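Raw, unnormalised count of remaining cells in each well; per-plate z-scores of cell number underlie the calls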", "scale": "Kc cell number and S2R+ cell number: higher = more cells remaining", "hit rule": "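Active when the per-plate z-score of cell number is 3 or more in the direction of fewer cells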", "note": "The screen tested about 21,000 reagents; this is an unselected part of those that have a named target and a result. Of all reagents, 429 (2%) are marked active. 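Values are raw and not normalised between plates; calls rest on per-plate z-scores that were not deposited.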 A number with no mark means an inactive call. Not given: the amount of reagent, the time to read-out."}
{"predicted target":"CG34199","amplicon":"DRSC05867","Kc cell number, rep 1":5.24e5,"S2R+ cell number, rep 1":7.55e5}
{"predicted target":"Rbpn-5","amplicon":"DRSC04440","Kc cell number, rep 1":1.26e6,"Kc cell number, rep 2":1.39e6,"S2R+ cell number, rep 1":1.12e6,"S2R+ cell number, rep 2":1.17e6}
{"predicted target":"MED21","amplicon":"DRSC20932","Kc cell number, rep 1":1.66e6,"Kc cell number, rep 2":1.62e6,"S2R+ cell number, rep 1":1.16e6,"S2R+ cell number, rep 2":1.29e6}
{"predicted target":"Cbl","amplicon":"DRSC10764","Kc cell number, rep 1":1.46e6,"Kc cell number, rep 2":1.44e6,"S2R+ cell number, rep 1":1.10e6,"S2R+ cell number, rep 2":1.20e6}
{"predicted target":"Cbl","amplicon":"DRSC11111","Kc cell number, rep 1":1.54e6,"Kc cell number, rep 2":1.44e6,"S2R+ cell number, rep 1":1.02e6,"S2R+ cell number, rep 2":1.09e6}
{"predicted target":"ODA-Dnal1","amplicon":"DRSC07270","Kc cell number, rep 1":1.55e6,"Kc cell number, rep 2":1.57e6,"S2R+ cell number, rep 1":1.35e6,"S2R+ cell number, rep 2":1.39e6}
{"predicted target":"CG6843","amplicon":"DRSC10725","Kc cell number, rep 1":1.57e6,"Kc cell number, rep 2":1.74e6,"S2R+ cell number, rep 1":1.20e6,"S2R+ cell number, rep 2":1.38e6}
{"predicted target":"Cngl","amplicon":"DRSC20318","Kc cell number, rep 1":1.52e6,"Kc cell number, rep 2":1.45e6,"S2R+ cell number, rep 1":9.78e5,"S2R+ cell number, rep 2":1.06e6}
{"predicted target":"CG8197","amplicon":"DRSC07105","Kc cell number, rep 1":1.50e6,"Kc cell number, rep 2":1.52e6,"S2R+ cell number, rep 1":1.26e6,"S2R+ cell number, rep 2":1.34e6}

Continued (2 carried over from the part before).
{"predicted target":"Cngl","amplicon":"DRSC20318","Kc cell number, rep 1":1.52e6,"Kc cell number, rep 2":1.45e6,"S2R+ cell number, rep 1":9.78e5,"S2R+ cell number, rep 2":1.06e6}
{"predicted target":"CG8197","amplicon":"DRSC07105","Kc cell number, rep 1":1.50e6,"Kc cell number, rep 2":1.52e6,"S2R+ cell number, rep 1":1.26e6,"S2R+ cell number, rep 2":1.34e6}
{"predicted target":"Tdrd3","amplicon":"DRSC10016","Kc cell number, rep 1":1.30e6,"Kc cell number, rep 2":1.40e6,"S2R+ cell number, rep 1":1.24e6,"S2R+ cell number, rep 2":1.34e6}
{"predicted target":"CG7530","amplicon":"DRSC16255","Kc cell number, rep 1":1.63e6,"Kc cell number, rep 2":1.68e6,"S2R+ cell number, rep 1":1.38e6,"S2R+ cell number, rep 2":1.38e6}
{"predicted target":"CG33919","amplicon":"DRSC04940","Kc cell number, rep 1":1.57e6,"Kc cell number, rep 2":1.62e6,"S2R+ cell number, rep 1":1.03e6,"S2R+ cell number, rep 2":1.18e6}
{"predicted target":"GstS1","amplicon":"DRSC07436","Kc cell number, rep 1":1.23e6,"Kc cell number, rep 2":1.31e6,"S2R+ cell number, rep 1":7.95e5,"S2R+ cell number, rep 2":7.44e5}
{"predicted target":"pll","amplicon":"DRSC17026","Kc cell number, rep 1":4.83e5,"S2R+ cell number, rep 1":8.40e5}
{"predicted target":"Dad","amplicon":"DRSC16642","Kc cell number, rep 1":1.78e6,"Kc cell number, rep 2":1.91e6,"S2R+ cell number, rep 1":1.21e6,"S2R+ cell number, rep 2":1.35e6}
{"predicted target":"CG15140","amplicon":"DRSC02440","Kc cell number, rep 1":1.56e6,"Kc cell number, rep 2":1.67e6,"S2R+ cell number, rep 1":1.21e6,"S2R+ cell number, rep 2":1.34e6}
{"predicted target":"EMC7","amplicon":"DRSC07162","Kc cell number, rep 1":1.52e6,"Kc cell number, rep 2":1.56e6,"S2R+ cell number, rep 1":1.22e6,"S2R+ cell number, rep 2":1.28e6}
{"predicted target":"CG15107","amplicon":"DRSC06534","Kc cell number, rep 1":1.67e6,"Kc cell number, rep 2":1.75e6,"S2R+ cell number, rep 1":1.25e6,"S2R+ cell number, rep 2":1.49e6}
{"predicted target":"Irk1","amplicon":"DRSC16106","Kc cell number, rep 1":1.51e6,"Kc cell number, rep 2":1.51e6,"S2R+ cell number, rep 1":1.02e6,"S2R+ cell number, rep 2":1.12e6}
{"predicted target":"Pabp2","amplicon":"DRSC07501","Kc cell number, rep 1":"8.41e5 (active)","Kc cell number, rep 2":9.59e5,"S2R+ cell number, rep 1":5.71e5,"S2R+ cell number, rep 2":6.54e5}
{"predicted target":"tgy","amplicon":"DRSC20045","Kc cell number, rep 1":1.41e6,"Kc cell number, rep 2":1.42e6,"S2R+ cell number, rep 1":1.05e6,"S2R+ cell number, rep 2":1.13e6}
